Laboratory results from the supplement of paper PMC12823440, “Inhibitors supercharge kinase turnover through native proteolytic circuits” (Nature, 2025).
The list shows a part of the results. The calls rarely recur for the same compound in another form.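 Kinases were expressed as nanoluciferase fusions in K562 cells and luminescence was read every 4 h between 2 and 18 h as percent of control, DMSO set to 100% and a positive control to 0%. A time point counts as decreased when the signal drops significantly (2 sigma). The hit call is the authors' own, does not follow from the count of time points alone, and its rule is not shown.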

Molecular target: ZAK (UniProt Q9NYL2)
Assay: kinase-Nluc reporter destabilization hit call (1 = scored as downregulated) (binary); higher = compound decreases kinase abundance
Settings: K562; 2-18 h

kinase-Nluc reporter destabilization hit call, inactive:
NCc1ccc(Nc2ncc(F)c(Nc3ccccc3)n2)cc1 (10 µM) 0
C=C(C)C(=O)Nc1cccc(-c2ncnc3[nH]cc(C(=O)OCC)c23)c1 (10 µM) 0
CCOc1cc(C(=O)N2CCC(N3CCN(C)CC3)CC2)ccc1Nc1ncc2c(n1)N(C1CCCC1)c1ccccc1C(=O)N2C (10 µM) 0
CCOc1ccc(C(=O)Nc2ncc([N+](=O)[O-])s2)cc1 (10 µM) 0
CNC(=O)Nc1ccc(-c2cc(-c3ccnc(Nc4ccc(C)c(S(=O)(=O)N(C)C)c4)n3)ccn2)cc1 [hSMG-1 inhibitor 11e] (2.5 µM) 0
CNC(=O)c1ccc(-c2cnc3cnc(C(=O)N(C)c4ccc(Cl)cc4)cn23)cc1 (2.5 µM) 0
COc1cccc(-n2c(=O)[nH]c3cc(Cl)n(-c4ccc(-c5cccc(OC)c5O)cc4)c3c2=O)c1 (2.5 µM) 0
O=C(Nc1cccnc1)c1cc(C(=O)c2c(F)cccc2Br)c[nH]1 (10 µM) 0
CN(CC(=O)N(Cc1ccc(C2CCCCC2)cc1)c1ccc(C(=O)O)cc1)S(=O)(=O)c1c(F)c(F)c(F)c(F)c1F (2.5 µM) 0
COc1c(NC(=O)C(=O)c2ccc(OCCN3CCOCC3)c3ccccc23)cc(C(C)(C)C)cc1NS(C)(=O)=O (2.5 µM) 0
CC(C)CC1(O)CCN(C(=O)c2ccc(NS(=O)(=O)c3cccc4nccnc34)cc2)CC1 (10 µM) 0
O=C(/C=C/c1ccc(O)c(O)c1)c1ccc(O[C@@H]2O[C@H](CO)[C@@H](O)[C@H](O)[C@H]2O)c(O)c1O [Marein] (10 µM) 0

Three entries already listed, sorted by length of the SMILES, rising.
kinase-Nluc reporter destabilization hit call, inactive:
CCOc1ccc(C(=O)Nc2ncc([N+](=O)[O-])s2)cc1 (10 µM) 0
CNC(=O)Nc1ccc(-c2cc(-c3ccnc(Nc4ccc(C)c(S(=O)(=O)N(C)C)c4)n3)ccn2)cc1 [hSMG-1 inhibitor 11e] (2.5 µM) 0
COc1c(NC(=O)C(=O)c2ccc(OCCN3CCOCC3)c3ccccc23)cc(C(C)(C)C)cc1NS(C)(=O)=O (2.5 µM) 0
